B1: SLC34A2 Ab 10 (antibody, human IgG1, kappa, V domains shown)
VH: QVQLLESGGGLVQPGASLRLSCAASGFTFSTYAMTWVRQAPGKGLEWVSGINGGGDTTYYADSVKGRFTISRDNSKNTLYLQMNSLRAEDTAVYYCAVRGYTYGYFFDYWGQGTLVTVSS
VL: DIQMTQSPSSLSASVGDRVTITCRASQGISNYLAWYQQRPGKVPKLLIYAASTLRSGVPSRFSGSGSGTDFTLTISSLQPEDVATYYCQKYNSAPLTFGGGTKVEIKR
B2: SLC34A2 Ab 9 (antibody, human IgG1, kappa, V domains shown)
VH: QVQLVESGGGLVQPGRSLRLSCSGSGFTSGDYAVSWVRQAPGKGLEWVGFIRTKPYGETTEYAASVKGRFTISRDDSKSIAYLQMNSLKAEDTAVFYCTFIPVSRFLEWLPWGQGIPVTVSS
VL: DIQMTQSPSSLSAFVGDRVTITCRASQDIGNYLAWYQQTPEKVPKLLIYAASTLQSGVPSRFSGSGSGTDFTLTISSLQPEDVATYYCQNYYSVPWTFGQGTKVEIKR
B3: SLC34A2 Ab 15 (antibody, human IgG1, kappa, V domains shown)
VH: QVQLQESGPGLVKPSETLSLTCTVSGGSVSSASYYWSWIRQPPGKGLEYIGYIYYSGSTYYNPSLKSRVTISIDTSKNQFSLNLRSVTAADTAVYYCARYIVGRPGFNWFDPWGQGTLVTVSS
VL: DIQMTQSPSSLSASVGDRVTITCRASQSISSYLNWYQQKPGKAPKFLISPASSLQSGVPSRFSGSGSGTDFTLTISSLQPEDFATYYCQQSYSIPWTFGQGTKVEIKR
B4: SLC34A2 Ab 16 (antibody, human IgG1, kappa, V domains shown)
VH: B3 VH with G27D, A32V, Y49W, Y54W, N83K
VL: B3 VL with S28T, F46L, S53N, S93I
B5: SLC34A2 Ab 6 (antibody, human IgG1, kappa, V domains shown)
VH: QVQLLESGGGLVQPGGSLRLSCAASGFTFSSSAMAWVRQAPGKGLEWVSAISSSGDNTYYADSVKGRFTISRDTSKNTLSLQMSSLRAEDTAIYYCAKQGTNWGLYFDYWGQGTLVTVSS
VL: B1 VL with T22A, G28V, R39K, A50V, R55Q, K90N, L96W, G100Q, V104L
B6: SLC34A2 Ab 5 (antibody, human IgG1, kappa, V domains shown)
VH: QVQLQESGPGLVKPSETLSLTCSVSGGSISSSSYYWGWIRQPPGKGLEWIGSIDYSGSTYYNPSLKSRVTISIDTSKNQFSLRLSSVTAAEKAVYYCARHGRGTIGYFDYWGQGTLVTVSS
VL: B3 VL with F46L, S49Y, P50A, Q55L, S56T, S63T, A84G, I94P, W96L, Q100G
B7: TMPRSS4 Ab73 scFv (VH-VL) (scFv)
scFv: EVQLLESGGGLVQPGGSLRLSCAASGFTFSSYAMHWVRQAPGKGLEWLAVISFDGSIRHYADSVKGRFTISRDNSKNTLYLQMNSLRAEDTAVYYCAKPKASSGPRLIDYWGQGTLVTVSSGGGGSGGGGSGGGGSDIQMTQSPSSLSASVGDRVTITCRASQGISNSLAWYQQKPGKAPKLLIYSAVNLQSGVPSRFSGSGSGTDFTLTISSLQPEDFATYYCQQANSFPLTFGGGTKVEIK

The chains behind the UniProt entries cited, without tags or fusion partners. Where a name states a change or a piece, a line headed by the entry shows the natural chain unless it says otherwise.
UniProt Q9NRS4: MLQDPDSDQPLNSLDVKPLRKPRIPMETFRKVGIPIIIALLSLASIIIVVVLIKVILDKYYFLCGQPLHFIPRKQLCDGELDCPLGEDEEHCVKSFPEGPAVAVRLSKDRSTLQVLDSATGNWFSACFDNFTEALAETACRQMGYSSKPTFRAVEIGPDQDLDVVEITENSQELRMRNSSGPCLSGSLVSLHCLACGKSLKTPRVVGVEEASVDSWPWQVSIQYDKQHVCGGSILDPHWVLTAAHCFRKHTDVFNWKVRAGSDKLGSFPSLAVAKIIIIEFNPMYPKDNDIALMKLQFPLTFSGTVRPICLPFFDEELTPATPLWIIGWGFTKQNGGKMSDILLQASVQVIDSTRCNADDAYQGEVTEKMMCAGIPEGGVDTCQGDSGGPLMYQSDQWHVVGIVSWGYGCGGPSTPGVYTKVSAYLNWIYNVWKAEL

Residue numbers refer to the chain shown, from its start. No constants are given. Whether binding was seen depends on the method and setting. Some binding calls cover weakened binding; strength is not graded here.

One test concerns the target T1, SLC34A2 peptide fragment (peptide 1) (human).
T1 sequence (peptide, biotinylated (site not stated)): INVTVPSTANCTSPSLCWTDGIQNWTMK
In words: ELISA, biotinylated antigen on NeutrAvidin plate, anti-human Fc-HRP. (In general: In an ELISA, binding on a coated surface is turned into a signal by an enzyme label.)
With B1, the binding entry is “binds”.

As for B2, the binding result is on record as “binds”.

As for B3, the binding entry is “binds”.

Regarding B4, the binding result is listed as “binds”.

The target of another test is ECL-mFc fusion protein (human SLC34A2 ECL2 fused to murine Fc) (human). The test is described as above.
For the molecule B5, the binding result was “binds”.

On to B1, for which the binding entry is “binds”.

For the molecule B2, the binding entry was “binds”.

Regarding B6, the binding entry is listed as “binds”.

With B3, the binding entry is “binds”.

Consider B4, for which the binding entry is “binds”.

In another test the target is Human TMPRSS4 (Transmembrane protease, serine 4), wild type full length (human) (UniProt Q9NRS4). Description: flow cytometry, monoclonal phage on HEK293T-TMPRSS4 cells.
As for B7, the binding entry is reported as “binds”.

The values are drawn from patent US20250297255A1.
